Drawing on PMC10908107, this text covers binding for three molecules.

The chains behind the UniProt entries cited, without tags or fusion partners.
UniProt P38432: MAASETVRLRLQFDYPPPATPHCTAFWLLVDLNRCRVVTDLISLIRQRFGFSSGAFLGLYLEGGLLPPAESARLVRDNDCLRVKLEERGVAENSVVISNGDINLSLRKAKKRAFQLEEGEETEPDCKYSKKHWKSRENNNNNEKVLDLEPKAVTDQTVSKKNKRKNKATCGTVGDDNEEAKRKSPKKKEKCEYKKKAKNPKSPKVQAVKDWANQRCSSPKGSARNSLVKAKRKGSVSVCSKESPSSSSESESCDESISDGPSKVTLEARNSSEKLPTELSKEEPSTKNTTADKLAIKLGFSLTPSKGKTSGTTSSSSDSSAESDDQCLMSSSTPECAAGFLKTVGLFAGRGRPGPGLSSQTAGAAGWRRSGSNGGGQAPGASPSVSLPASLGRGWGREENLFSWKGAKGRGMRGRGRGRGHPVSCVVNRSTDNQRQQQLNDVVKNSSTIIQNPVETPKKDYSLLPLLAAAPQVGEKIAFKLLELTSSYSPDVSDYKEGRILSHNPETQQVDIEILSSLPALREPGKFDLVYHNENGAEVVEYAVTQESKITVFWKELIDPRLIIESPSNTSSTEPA
UniProt O14746: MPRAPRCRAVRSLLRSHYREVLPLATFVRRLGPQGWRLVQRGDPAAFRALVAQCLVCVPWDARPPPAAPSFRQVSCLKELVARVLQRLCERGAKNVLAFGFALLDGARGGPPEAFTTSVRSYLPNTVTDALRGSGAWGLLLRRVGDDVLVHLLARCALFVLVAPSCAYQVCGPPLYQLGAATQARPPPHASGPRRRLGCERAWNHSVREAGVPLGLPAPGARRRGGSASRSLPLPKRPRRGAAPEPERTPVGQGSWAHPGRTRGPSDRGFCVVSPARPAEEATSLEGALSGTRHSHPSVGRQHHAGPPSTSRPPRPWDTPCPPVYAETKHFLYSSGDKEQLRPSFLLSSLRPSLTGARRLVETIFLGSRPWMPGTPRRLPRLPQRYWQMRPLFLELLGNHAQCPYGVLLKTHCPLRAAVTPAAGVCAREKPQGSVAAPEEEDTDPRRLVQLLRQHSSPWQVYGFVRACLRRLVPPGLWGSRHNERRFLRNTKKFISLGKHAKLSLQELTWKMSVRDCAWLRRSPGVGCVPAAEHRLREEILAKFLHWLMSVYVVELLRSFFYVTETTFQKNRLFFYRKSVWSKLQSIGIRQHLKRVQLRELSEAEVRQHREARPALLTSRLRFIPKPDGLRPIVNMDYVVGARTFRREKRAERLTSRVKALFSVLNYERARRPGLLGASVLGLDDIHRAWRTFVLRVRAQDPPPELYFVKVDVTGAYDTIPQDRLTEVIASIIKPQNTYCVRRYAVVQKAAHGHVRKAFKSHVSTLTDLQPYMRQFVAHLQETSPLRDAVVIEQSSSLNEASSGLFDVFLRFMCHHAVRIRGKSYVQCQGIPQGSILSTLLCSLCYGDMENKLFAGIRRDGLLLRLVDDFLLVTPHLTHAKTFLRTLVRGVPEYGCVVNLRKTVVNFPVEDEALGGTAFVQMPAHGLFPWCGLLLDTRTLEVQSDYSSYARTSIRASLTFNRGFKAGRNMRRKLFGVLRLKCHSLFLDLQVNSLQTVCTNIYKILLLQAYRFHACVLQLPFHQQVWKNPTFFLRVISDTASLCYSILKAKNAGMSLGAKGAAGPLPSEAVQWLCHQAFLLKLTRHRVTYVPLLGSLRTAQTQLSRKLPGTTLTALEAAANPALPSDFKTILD
UniProt P98175: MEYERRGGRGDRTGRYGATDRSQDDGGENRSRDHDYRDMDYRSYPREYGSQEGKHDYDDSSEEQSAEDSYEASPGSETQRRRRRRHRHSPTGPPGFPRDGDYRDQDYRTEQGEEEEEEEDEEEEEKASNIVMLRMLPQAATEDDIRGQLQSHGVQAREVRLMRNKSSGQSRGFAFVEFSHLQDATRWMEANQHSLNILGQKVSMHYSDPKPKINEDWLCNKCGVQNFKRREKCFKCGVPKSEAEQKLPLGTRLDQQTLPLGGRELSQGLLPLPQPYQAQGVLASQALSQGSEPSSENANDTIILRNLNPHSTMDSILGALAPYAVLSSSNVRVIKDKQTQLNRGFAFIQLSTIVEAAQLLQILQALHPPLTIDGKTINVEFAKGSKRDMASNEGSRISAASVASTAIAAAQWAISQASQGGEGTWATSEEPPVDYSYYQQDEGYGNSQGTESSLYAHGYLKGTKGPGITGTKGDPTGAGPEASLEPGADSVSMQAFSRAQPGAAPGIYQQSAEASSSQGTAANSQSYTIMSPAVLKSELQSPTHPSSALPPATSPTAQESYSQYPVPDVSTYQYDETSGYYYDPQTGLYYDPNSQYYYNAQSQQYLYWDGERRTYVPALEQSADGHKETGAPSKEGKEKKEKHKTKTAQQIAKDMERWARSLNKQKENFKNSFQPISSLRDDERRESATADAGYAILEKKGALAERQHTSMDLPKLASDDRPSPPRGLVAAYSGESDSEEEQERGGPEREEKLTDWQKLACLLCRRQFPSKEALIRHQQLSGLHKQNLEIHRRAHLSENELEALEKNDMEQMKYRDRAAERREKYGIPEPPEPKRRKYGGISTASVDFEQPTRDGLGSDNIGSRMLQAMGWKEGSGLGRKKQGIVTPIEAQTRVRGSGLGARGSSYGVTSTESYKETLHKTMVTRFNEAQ

No constants are given. Whether binding was seen depends on the method and setting. In cells and extracts the contact can be indirect. Some results given as binding are weak or reduced against the parent protein; the word gives no strength.

Assay in all cases: co-IP; endogenous proteins of A549 cells lysed in IP lysis buffer; antibodies at 4 °C overnight, Protein A/G magnetic beads, western blot; cells shNC, shPinX1 or shRBM10; for PinX1/TPP1 with hTERT also S-phase cells enriched by thymidine double blocking
(A western blot detects proteins with antibodies after separation by electrophoresis.)

The target in test [1] is coilin (human (endogenous in A549)) (UniProt P38432).
Test [2] concerns the target T1, PIN2/TERF1-interacting telomerase inhibitor (PinX1) (human (endogenous in A549)) (UniProt Q96BK5).
T1 sequence: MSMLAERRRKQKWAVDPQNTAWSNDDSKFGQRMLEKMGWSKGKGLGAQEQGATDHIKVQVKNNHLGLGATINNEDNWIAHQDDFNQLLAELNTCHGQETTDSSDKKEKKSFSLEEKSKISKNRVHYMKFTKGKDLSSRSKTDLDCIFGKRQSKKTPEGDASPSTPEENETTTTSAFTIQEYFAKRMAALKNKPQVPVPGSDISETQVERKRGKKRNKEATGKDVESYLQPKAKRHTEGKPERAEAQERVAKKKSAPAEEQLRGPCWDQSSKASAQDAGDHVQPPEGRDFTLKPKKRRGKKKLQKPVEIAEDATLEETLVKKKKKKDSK

Test [3] addresses hTERT (human (endogenous in A549)) (UniProt O14746).

For the molecule hTERT (from UniProt O14746 1-1132), the binding result in test [1] is on record as “binds”.

Take “RNA-binding motif protein 10 (RBM10) (from UniProt P98175 1-930)”: in test [2], the binding result was “binds”.

B1: PIN2/TERF1-interacting telomerase inhibitor (PinX1) (protein, UniProt Q96BK5 1-328)
chain: MSMLAERRRKQKWAVDPQNTAWSNDDSKFGQRMLEKMGWSKGKGLGAQEQGATDHIKVQVKNNHLGLGATINNEDNWIAHQDDFNQLLAELNTCHGQETTDSSDKKEKKSFSLEEKSKISKNRVHYMKFTKGKDLSSRSKTDLDCIFGKRQSKKTPEGDASPSTPEENETTTTSAFTIQEYFAKRMAALKNKPQVPVPGSDISETQVERKRGKKRNKEATGKDVESYLQPKAKRHTEGKPERAEAQERVAKKKSAPAEEQLRGPCWDQSSKASAQDAGDHVQPPEGRDFTLKPKKRRGKKKLQKPVEIAEDATLEETLVKKKKKKDSK
Consider B1, for which, in test [3], the binding result is on record as “binds”.
